Here are results for three molecules from publication PMC5496928, “Data driven polypharmacological drug design for lung cancer: analyses for targeting ALK, MET, and EGFR” (Journal of Cheminformatics, 2017).

For this data set, the system named is EGFR (L858R) and EGFR (L858R, T790M). In words: scanKINETIC conclusions stated in text for both EGFR forms together. The data set is classed as binding. Conditions: two EGFR targets. An excerpt: Tests of the compounds confirm suitability for ALK + MET + EGFR polypharmacology optimization (Table 1). […] For compound 1, ^3 with the acrylamide function at the site corresponding to that of WZ4002, both ALK and MET binding were inhibited more weakly compared to EGFR binding. […] The sensitivity to the assay conditions seen for both forms of EGFR and uniformly tighter binding under the new assay conditions may indicate tighter binding for ALK and MET under these altered assay conditions as well.
The kinetics testing results (Table 1) support several further important conclusions. […] The simultaneous appearance of slow association and slow dissociation complicates the interpretation of the results, but the percentage values shown in Table 1 show the apparent residual amounts of compounds relative to bound values at 1 h. These values indicate retention of roughly half of compound 1, and nearly all of compound 2a, after dilution. […] The similarity of compound 2a to 2b and 1 with respect to structure and binding strength, differing only in the linker to the acrylamide binding group, is further evidence that that it is the covalent binding property that determines the difference in binding kinetics, rather than e.g. a slow conformational change of the target enzymes.
The three tricyclic compounds (1, 2a and 2b) were purchased from the company ARTTSynthesis (www.arttsynthesis.com). Tests for binding properties were performed by the company DiscoverX (www.discoverx.com), using a concentration of 1 µM against ALK, MET and EGFR variants L858R and L858R_T790M) using KdELECT and scanKINETIC from DiscoverX [124, 125].
In the case of `C=CC(=O)Nc1cccc(Nc2nc(Nc3ccccc3)ncc2Cl)c1` [compound 1, N‐(3‐{[5‐chloro‐2‐(phenylamino)pyrimidin‐4‐yl]amino}phenyl)prop‐2‐enamide], the “Kd tighter under scanKINETIC than in KdELECT assays” value (shortened to “Kd tighter under scanKINETIC than”) is recorded as 4-7 fold.

Regarding `C=CC(=O)Nc1cccc(Nc2ncc(Cl)c(Nc3ccccc3)n2)c1` [compound 2a, N‐(3‐{[5‐chloro‐4‐(phenylamino)pyrimidin‐2‐yl]amino}phenyl)prop‐2‐enamide], the “Kd tighter under scanKINETIC than” value is reported as “approximately 2 fold”.

Consider `C=CC(=O)NCc1cccc(Nc2ncc(Cl)c(Nc3ccccc3)n2)c1` [compound 2b, N‐[(3‐{[5‐chloro‐4‐(phenylamino)pyrimidin‐2‐yl]amino}phenyl)methyl]prop‐2‐enamide], for which the “Kd tighter under scanKINETIC than” value was 4-7 fold.
